Source: PubChem BioAssay AID2551 (National Center for Advancing Translational Sciences (NCATS), 2010)
Screen size: about 310,000 compounds; about 17,000 (5.5%) were called active. Inconclusive results, whose numbers are uncertain, are shown with a selection of clear calls. Calls follow the shape of the dose curve; as a rule, active = well fitted inhibition curve with a large enough effect; inconclusive = small, poorly fitted or top-dose-only effect, or effect the other way; inactive = no such curve, though single readings can be large or run the other way. A potency beside an inconclusive call is a rough fit, not a confirmed value.

By UniProt entry, the sequences of proteins in these tests, tags left out. Where a name states a change or a piece, a line headed by the entry shows the natural chain unless it says otherwise.
UniProt P51450: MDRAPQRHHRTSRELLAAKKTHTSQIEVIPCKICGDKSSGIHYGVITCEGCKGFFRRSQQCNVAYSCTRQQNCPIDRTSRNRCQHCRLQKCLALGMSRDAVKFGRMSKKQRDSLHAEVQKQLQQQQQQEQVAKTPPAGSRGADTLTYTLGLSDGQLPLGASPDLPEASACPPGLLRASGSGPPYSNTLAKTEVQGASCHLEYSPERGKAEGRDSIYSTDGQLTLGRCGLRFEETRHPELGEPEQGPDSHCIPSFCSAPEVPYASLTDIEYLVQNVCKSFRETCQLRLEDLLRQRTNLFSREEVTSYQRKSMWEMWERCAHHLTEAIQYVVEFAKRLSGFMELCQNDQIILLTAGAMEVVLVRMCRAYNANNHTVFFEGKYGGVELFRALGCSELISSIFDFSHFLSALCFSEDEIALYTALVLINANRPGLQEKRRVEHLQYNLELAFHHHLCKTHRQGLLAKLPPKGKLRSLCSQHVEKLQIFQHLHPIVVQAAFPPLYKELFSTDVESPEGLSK

Target: Nuclear receptor ROR-gamma (Mus musculus) (UniProt P51450)
Experiment: qHTS for inhibitors of ROR gamma transcriptional activity; also: nearly all actives have a fitted effect of over 60% in size
Conditions: Drosophila S2 Gal4-RORgamma UAS-luciferase reporter, 20 h; series mostly up to 53.6 µM
In short: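 Drosophila S2 cells stably expressing Gal4-DBD/mouse RORγ fusion under metallothionein promoter plus UAS-luciferase; compound 1 h, then 700 uM CuSO4 induction for 20 h at ambient temperature; inhibition read as reduced luminescence.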
Potency is read from the fitted curve at half-maximal effect.

| SMILES | Potency |
| --- | --- |
| CNc1ccc(-c2nc3ccccc3s2)cc1 | active: 1.41 µM |
| CSc1cccc(NC(=O)CCCOc2ccc(Cl)cc2C)c1 | inconclusive: 31.6 µM [activator, single point] |
| CCOC(=O)N1CCN(C2CC(=O)N(c3ccccc3)C2=O)CC1 (configuration not stated) | inactive |
| O=C(Nc1ccc(N2CCN(C(=O)c3cccs3)CC2)c(Cl)c1)c1ccco1 | inconclusive: 35.5 µM [inhibitor, single point] |
| O=C(N/N=C/C=C\c1ccccc1[N+](=O)[O-])c1cccs1 | active: 14.1 µM |
| CC(=O)Nc1ccc(N=Nc2c(C)[nH]n(C(N)=S)c2=O)cc1 | active: 3.98 µM |
| Cc1cc(N)n2nc(C)c(-c3ccc(Cl)cc3)c2n1 | inconclusive: 2 µM [inhibitor, partial curve] |
| NS(=O)(=O)c1ccc(CCNC(=O)c2coc3ccccc3c2=O)cc1 | inactive |
| S=c1[nH]nc(COc2cccc3ccccc23)n1Cc1ccccc1 | active: 3.16 µM |
| CNS(=O)(=O)c1ccc2nc(NC(=O)c3ccc(N4C(=O)CCC4=O)cc3)sc2c1 | inactive |
| N/C(Cn1cncn1)=N\NC(=O)C(=O)Nc1ccccc1 | inactive |
| COc1ccc(N2CCC(CNC(=O)Nc3ccc(Cl)cc3)C2)cc1 (configuration not stated) | inconclusive: 31.6 µM [activator, single point] |
| COc1ccc2[nH]c3c(=S)nc[nH]c3c2c1 | inconclusive: 11.2 µM [inhibitor, single point] |
| O=C(COC(=O)c1ccccc1Nc1ccccc1)c1ccccc1 | inconclusive: 15.8 µM [activator, single point] |
| Nc1c(C(=O)NC2CCCCC2)nsc1C(=O)OCC(=O)NC1CCCCC1 | inconclusive: 3.55 µM [activator, full curve, poor fit] |
| CCc1nc2sc3c(c2c(=O)n1N)CC(C)(C)OC3 | inactive |
| COC(=O)C(Cc1ccc(O)cc1)NC(=O)C(C)NC(=O)c1ccc(C(C)(C)C)cc1 (configuration not stated) | inactive |
| Cc1ccc(CSc2nc3c(c(N(C)C)n2)CCCC3)cc1 | inconclusive: 12.6 µM [inhibitor, partial curve, poor fit] |
| COC(=O)c1ccc(N2CCN(S(=O)(=O)c3ccc(C)cc3)CC2)c([N+](=O)[O-])c1 | inconclusive: 22.4 µM [activator, single point] |
| O=C(N=Nc1ccc(NOC(=O)c2ccccc2Br)cc1)c1ccccc1O | inconclusive: 35.5 µM [inhibitor, single point] |
| COc1ccc(CCNC(=O)C(=O)NCC2OCCN2S(=O)(=O)c2ccc(C)cc2)cc1 (configuration not stated) | inconclusive: 10 µM [activator, partial curve, poor fit] |
| Cc1cc(NC(=O)CSc2cn(CCNC(=O)c3ccc(F)cc3)c3ccccc23)no1 | inactive |
| Oc1ccc(N=Cc2c(O)ccc3ccccc23)cc1 | inconclusive: 10 µM [inhibitor, partial curve, poor fit] |
| O=C(N/N=C/c1ccncc1)c1cc([N+](=O)[O-])cc([N+](=O)[O-])c1 | inactive |

Given with tabs: part of the list above
SMILES	Potency
N/C(Cn1cncn1)=N\NC(=O)C(=O)Nc1ccccc1	inactive
COc1ccc(N2CCC(CNC(=O)Nc3ccc(Cl)cc3)C2)cc1 (configuration not stated)	inconclusive: 31.6 µM [activator, single point]
COc1ccc2[nH]c3c(=S)nc[nH]c3c2c1	inconclusive: 11.2 µM [inhibitor, single point]
O=C(COC(=O)c1ccccc1Nc1ccccc1)c1ccccc1	inconclusive: 15.8 µM [activator, single point]

(cont.)

| SMILES | Potency |
| --- | --- |
| COc1ccc(OC)c(C2C(C(N)=O)=C(C)Nc3nc(-c4cccc(Cl)c4)nn32)c1 (configuration not stated) | inconclusive: 25.1 µM [inhibitor, single point] |
| O=C(Nc1cccc(F)c1)C1CC(=O)N(c2ccc(Br)cc2)C1 (configuration not stated) | inconclusive: 1.58 µM [activator, partial curve] |
| COc1ccc(/C=C/c2nc3ccccc3n2Cc2ccc(OC)c(OC)c2)cc1 | active: 12.6 µM |
| Cc1ccccc1-n1c(Cc2cccs2)n[nH]c1=S | active: 1.41 µM |
| Cc1cc(=O)c2ccccc2n1CC(=O)NCc1ccccc1 | inconclusive: 31.6 µM [activator, single point] |
| O=C(NC1CCCC1)C(c1cccnc1)N(C(=O)c1csnn1)c1ccccc1Cl (configuration not stated) | inconclusive: 0.0501 µM [activator, full curve, poor fit] |
| CCOc1ccc(N2C(=O)c3cccnc3C2=O)cc1 | inconclusive: 7.08 µM [inhibitor, partial curve] |
| COc1ccccc1N1CCN(C(=O)C2CCN(S(=O)(=O)c3ccc(Cl)cc3)CC2)CC1 | inconclusive: 12.6 µM [activator, partial curve] |
| NC(=O)N/N=C/c1ccccc1OCc1cccc2ccccc12 | inconclusive: 10 µM [inhibitor, partial curve] |
| CCCCC(=O)N/N=C(\C)CC(=O)Nc1ccccc1Br | inconclusive: 35.5 µM [inhibitor, single point] |
| Cc1ccc(/C(N)=N/OC(=O)c2ccco2)cc1 | inconclusive: 35.5 µM [inhibitor, single point] |
| C=CCN(CC(O)c1cccc([N+](=O)[O-])c1)C(C)CCc1ccccc1 (configuration not stated) | inactive |
| CNc1c(N)c(=O)oc2ccccc12 | inactive |
| O=C(CSc1nc2ccccc2c(=O)n1Cc1ccco1)N1CCCCCC1 | inconclusive: 11.2 µM [activator, partial curve] |
| CCN(CC)CCNC(=O)c1cn(-c2ccccc2)nc1-c1cccs1 | inactive |
| COc1ccccc1NC(=S)N1CCN(c2ccccc2F)CC1 | inconclusive: 22.4 µM [inhibitor, single point] |
| Cc1ccccc1Cn1c(=N)n(CC(=O)c2ccc([N+](=O)[O-])cc2)c2ccccc21 | inactive |
| O=C(Nc1ncnc2sc3c(c12)CCCC3)c1ccncc1 | inconclusive: 5.01 µM [inhibitor, full curve] |
| COCCNC(=O)Cn1ccc2cc(S(=O)(=O)N3CCCCC3)ccc21 | inactive |
| COc1ccc(NC(=O)CC2C(=O)N(C)C(=S)N2Cc2ccc3c(c2)OCO3)cc1 (configuration not stated) | inconclusive: 11.2 µM [activator, single point] |
| Cn1c(-c2nc(-c3ccccc3)cs2)nc2ccccc21 | inconclusive: 8.91 µM [inhibitor, full curve] |
| O=[N+]([O-])c1cc(S(=O)(=O)C(F)(F)F)ccc1Sc1nc2ccccc2[nH]1 | inconclusive: 25.1 µM [inhibitor, single point] |
| COc1cc(NC(=O)COC(=O)CC(C)(C)C)c(C)cc1[N+](=O)[O-] | inconclusive: 11.2 µM [activator, partial curve] |
